PubChem BioAssay AID1224830 | NIAID – 2016
Aim: 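Host factors that control LPS-induced TNF expression in human macrophages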 (primary screen). System: human THP-1 monocytic leukaemia cells, TNF dual-luciferase reporter clone, PMA-differentiated to macrophage-like cells. Knock-down reagent: siRNA pool against human genes, 50 nM. Time to read-out: LPS for 4 h, given about 3 days after siRNA transfection. Challenge: bacterial LPS (TLR4 ligand), 10 ng/ml. Measurement: 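TNF firefly reporter luminescence divided by renilla, normalised to the plate median, then turned into a robust z-score for each replicate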. Scale: TNF reporter robust z-score: higher = stronger TNF reporter response to LPS. Active means: 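Each well counts as active if its z-score is over 2.8 or under -1.5; controls are left without a call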.
The deposit covers about 18,000 reagents; shown is a random part of them. About 2,900 of them (16%) were called active. 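Calls are made per well; low scores hint the gene aids the LPS response, high scores that it dampens it.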 Repeated entries: four replicate wells of each siRNA pool. Reagent sequences are not shown.

gene knocked down | TNF reporter robust z-score | Outcome
IGFBP5 (GeneID 3488) | -0.51 | inactive
IGFBP5 (GeneID 3488) | -0.88 | inactive
IGFBP5 (GeneID 3488) | 0.32 | inactive
IGFBP5 (GeneID 3488) | 1.31 | inactive
NDUFAF6 (GeneID 137682) | 0.01 | inactive
NDUFAF6 (GeneID 137682) | -0.81 | inactive
NDUFAF6 (GeneID 137682) | -0.39 | inactive
NDUFAF6 (GeneID 137682) | -0.52 | inactive
LDLRAD3 (GeneID 143458) | -0.29 | inactive
LDLRAD3 (GeneID 143458) | -0.17 | inactive
LDLRAD3 (GeneID 143458) | -1.27 | inactive
LDLRAD3 (GeneID 143458) | -0.11 | inactive
SUZ12 (GeneID 23512) | -1.15 | inactive
SUZ12 (GeneID 23512) | -0.85 | inactive
SUZ12 (GeneID 23512) | -0.64 | inactive
SUZ12 (GeneID 23512) | -0.81 | inactive
ZNF257 (GeneID 113835) | 2.62 | inactive
ZNF257 (GeneID 113835) | 2.31 | inactive
ZNF257 (GeneID 113835) | 0.31 | inactive
ZNF257 (GeneID 113835) | 0.37 | inactive
GRPEL1 (GeneID 80273) | -0.04 | inactive
GRPEL1 (GeneID 80273) | 0.39 | inactive
GRPEL1 (GeneID 80273) | -0.26 | inactive
GRPEL1 (GeneID 80273) | -0.22 | inactive
ZNF335 (GeneID 63925) | -1.17 | inactive
ZNF335 (GeneID 63925) | -0.25 | inactive
ZNF335 (GeneID 63925) | -1.03 | inactive
ZNF335 (GeneID 63925) | -0.6 | inactive
VCX3A (GeneID 51481) | -1.39 | inactive
VCX3A (GeneID 51481) | -1.17 | inactive
VCX3A (GeneID 51481) | -0.38 | inactive
VCX3A (GeneID 51481) | -0.43 | inactive
XK (GeneID 7504) | 0.71 | inactive
XK (GeneID 7504) | 0.62 | inactive
XK (GeneID 7504) | 0.86 | inactive
XK (GeneID 7504) | 0.89 | inactive
TPCN2 (GeneID 219931) | 0.15 | inactive
TPCN2 (GeneID 219931) | 1.3 | inactive
TPCN2 (GeneID 219931) | 0.37 | inactive
TPCN2 (GeneID 219931) | 0.33 | inactive

Already shown: 16 of the entries above.
gene knocked down | TNF reporter robust z-score | Outcome
NDUFAF6 (GeneID 137682) | 0.01 | inactive
NDUFAF6 (GeneID 137682) | -0.81 | inactive
NDUFAF6 (GeneID 137682) | -0.39 | inactive
NDUFAF6 (GeneID 137682) | -0.52 | inactive
LDLRAD3 (GeneID 143458) | -0.29 | inactive
LDLRAD3 (GeneID 143458) | -0.17 | inactive
LDLRAD3 (GeneID 143458) | -1.27 | inactive
LDLRAD3 (GeneID 143458) | -0.11 | inactive
SUZ12 (GeneID 23512) | -1.15 | inactive
SUZ12 (GeneID 23512) | -0.85 | inactive
SUZ12 (GeneID 23512) | -0.64 | inactive
SUZ12 (GeneID 23512) | -0.81 | inactive
ZNF257 (GeneID 113835) | 2.62 | inactive
ZNF257 (GeneID 113835) | 2.31 | inactive
ZNF257 (GeneID 113835) | 0.31 | inactive
ZNF257 (GeneID 113835) | 0.37 | inactive

Further reagents follow:
gene knocked down | TNF reporter robust z-score | Outcome
MTIF3 (GeneID 219402) | 0.49 | inactive
MTIF3 (GeneID 219402) | 0.9 | inactive
MTIF3 (GeneID 219402) | -0.35 | inactive
MTIF3 (GeneID 219402) | -1.55 | active
CRYGN (GeneID 155051) | 0.2 | inactive
CRYGN (GeneID 155051) | -0.89 | inactive
CRYGN (GeneID 155051) | -0.62 | inactive
CRYGN (GeneID 155051) | 0.31 | inactive
H2BC1 (GeneID 255626) | 0.43 | inactive
H2BC1 (GeneID 255626) | 0.34 | inactive
H2BC1 (GeneID 255626) | -0.68 | inactive
H2BC1 (GeneID 255626) | 0.5 | inactive
GNPAT (GeneID 8443) | -0.38 | inactive
GNPAT (GeneID 8443) | -0.32 | inactive
GNPAT (GeneID 8443) | -0.19 | inactive
GNPAT (GeneID 8443) | 0.79 | inactive
SON (GeneID 6651) | -1.33 | inactive
SON (GeneID 6651) | -1.17 | inactive
SON (GeneID 6651) | -1.3 | inactive
SON (GeneID 6651) | -0.98 | inactive
NFE2 (GeneID 4778) | 0.21 | inactive
NFE2 (GeneID 4778) | 0.31 | inactive
NFE2 (GeneID 4778) | 1.78 | inactive
IQSEC3 (GeneID 440073) | -0.03 | inactive
IQSEC3 (GeneID 440073) | -0.11 | inactive
IQSEC3 (GeneID 440073) | 0.81 | inactive
IQSEC3 (GeneID 440073) | 1.39 | inactive
VCPKMT (GeneID 79609) | 0.99 | inactive
VCPKMT (GeneID 79609) | 0.91 | inactive
VCPKMT (GeneID 79609) | 1.42 | inactive
VCPKMT (GeneID 79609) | 1.26 | inactive
PHEX (GeneID 5251) | -0.82 | inactive
PHEX (GeneID 5251) | -0.39 | inactive
PHEX (GeneID 5251) | -0.94 | inactive
PHEX (GeneID 5251) | -0.4 | inactive
PPP1R17 (GeneID 10842) | 1.74 | inactive
PPP1R17 (GeneID 10842) | 0.98 | inactive
PPP1R17 (GeneID 10842) | 0.04 | inactive
PPP1R17 (GeneID 10842) | -0.77 | inactive
TMEM88 (GeneID 92162) | 0.29 | inactive
TMEM88 (GeneID 92162) | -0.55 | inactive
TMEM88 (GeneID 92162) | -1.41 | inactive
TMEM88 (GeneID 92162) | -0.9 | inactive
RNF121 (GeneID 55298) | 3.68 | active
RNF121 (GeneID 55298) | -0.52 | inactive
RNF121 (GeneID 55298) | 1.15 | inactive
RNF121 (GeneID 55298) | 8.71 | active
OR14C36 (GeneID 127066) | 0.63 | inactive
OR14C36 (GeneID 127066) | 0.87 | inactive
OR14C36 (GeneID 127066) | 0.72 | inactive
OR14C36 (GeneID 127066) | 1.75 | inactive
MT4 (GeneID 84560) | -1.12 | inactive
MT4 (GeneID 84560) | -1.05 | inactive
MT4 (GeneID 84560) | -0.06 | inactive
MT4 (GeneID 84560) | -0.01 | inactive
TESK2 (GeneID 10420) | -1.7 | active
TESK2 (GeneID 10420) | -1.43 | inactive
TESK2 (GeneID 10420) | -0.16 | inactive
TESK2 (GeneID 10420) | 0.04 | inactive
NFU1 (GeneID 27247) | 2.81 | active
NFU1 (GeneID 27247) | 2.26 | inactive
NFU1 (GeneID 27247) | 1.77 | inactive
NFU1 (GeneID 27247) | 2.59 | inactive
GIMAP8 (GeneID 155038) | -1.88 | active
GIMAP8 (GeneID 155038) | -1.98 | active
GIMAP8 (GeneID 155038) | -1.45 | inactive
GIMAP8 (GeneID 155038) | -1.21 | inactive
PHF21B (GeneID 112885) | 1.48 | inactive
PHF21B (GeneID 112885) | 0.14 | inactive
PHF21B (GeneID 112885) | -0.26 | inactive
PHF21B (GeneID 112885) | -1.34 | inactive
